Assay [1] addresses HIS-tagged Ssa1 (budding yeast) (UniProt P10591). The assay is described as follows: cross-linking.
For assay [2], the target named is Ssa1, FLAG-tagged and HA-tagged constructs expressed together in yeast (budding yeast) (UniProt P10591). The assay is described as follows: co-IP.
The target in assay [3] is HA-tagged Cct8 (budding yeast) (UniProt P47079). The assay is described as follows: co-IP.
Assay [4] concerns the target T1, HA-tagged Pcl7 (budding yeast) (UniProt P40186).
T1 sequence: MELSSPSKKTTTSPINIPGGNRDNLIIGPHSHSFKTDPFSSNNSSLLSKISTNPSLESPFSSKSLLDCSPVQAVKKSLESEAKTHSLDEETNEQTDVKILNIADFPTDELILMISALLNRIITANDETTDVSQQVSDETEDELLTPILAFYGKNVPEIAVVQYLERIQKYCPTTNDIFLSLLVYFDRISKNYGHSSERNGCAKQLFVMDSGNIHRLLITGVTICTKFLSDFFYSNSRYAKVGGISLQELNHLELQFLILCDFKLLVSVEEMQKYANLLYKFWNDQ
Briefly: co-IP.

By UniProt entry, the sequences of proteins in these tests, tags left out.
UniProt P10591: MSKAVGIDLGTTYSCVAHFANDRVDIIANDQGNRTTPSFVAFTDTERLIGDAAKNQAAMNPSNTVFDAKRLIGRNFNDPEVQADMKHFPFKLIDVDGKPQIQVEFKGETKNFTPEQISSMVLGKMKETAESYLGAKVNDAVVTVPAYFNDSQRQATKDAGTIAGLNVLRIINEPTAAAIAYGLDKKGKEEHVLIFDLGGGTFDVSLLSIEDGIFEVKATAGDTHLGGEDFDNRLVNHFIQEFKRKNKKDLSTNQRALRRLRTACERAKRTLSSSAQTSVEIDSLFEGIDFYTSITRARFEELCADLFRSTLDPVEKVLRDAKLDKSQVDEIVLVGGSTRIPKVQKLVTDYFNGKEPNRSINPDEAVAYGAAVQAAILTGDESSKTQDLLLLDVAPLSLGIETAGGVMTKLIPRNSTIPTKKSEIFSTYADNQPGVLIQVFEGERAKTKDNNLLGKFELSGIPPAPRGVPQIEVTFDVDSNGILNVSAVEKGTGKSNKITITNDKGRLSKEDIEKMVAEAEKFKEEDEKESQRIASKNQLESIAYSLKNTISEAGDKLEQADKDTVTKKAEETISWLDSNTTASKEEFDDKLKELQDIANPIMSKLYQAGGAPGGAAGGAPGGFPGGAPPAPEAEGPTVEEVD
UniProt P47079: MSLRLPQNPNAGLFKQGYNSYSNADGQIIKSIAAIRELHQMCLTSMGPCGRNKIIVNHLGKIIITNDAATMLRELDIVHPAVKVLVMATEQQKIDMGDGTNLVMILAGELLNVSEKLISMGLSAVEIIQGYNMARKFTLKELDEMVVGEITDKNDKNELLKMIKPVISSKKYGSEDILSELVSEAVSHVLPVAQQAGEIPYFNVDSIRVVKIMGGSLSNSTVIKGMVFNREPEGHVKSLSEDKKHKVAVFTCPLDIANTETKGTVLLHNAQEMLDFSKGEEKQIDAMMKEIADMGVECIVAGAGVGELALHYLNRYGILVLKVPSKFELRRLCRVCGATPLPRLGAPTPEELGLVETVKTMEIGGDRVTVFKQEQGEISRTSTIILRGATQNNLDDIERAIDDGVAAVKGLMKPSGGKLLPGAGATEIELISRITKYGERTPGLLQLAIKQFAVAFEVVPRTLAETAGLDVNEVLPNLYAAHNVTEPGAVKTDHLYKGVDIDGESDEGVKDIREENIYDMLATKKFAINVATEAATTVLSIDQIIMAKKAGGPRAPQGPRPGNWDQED
UniProt P32480: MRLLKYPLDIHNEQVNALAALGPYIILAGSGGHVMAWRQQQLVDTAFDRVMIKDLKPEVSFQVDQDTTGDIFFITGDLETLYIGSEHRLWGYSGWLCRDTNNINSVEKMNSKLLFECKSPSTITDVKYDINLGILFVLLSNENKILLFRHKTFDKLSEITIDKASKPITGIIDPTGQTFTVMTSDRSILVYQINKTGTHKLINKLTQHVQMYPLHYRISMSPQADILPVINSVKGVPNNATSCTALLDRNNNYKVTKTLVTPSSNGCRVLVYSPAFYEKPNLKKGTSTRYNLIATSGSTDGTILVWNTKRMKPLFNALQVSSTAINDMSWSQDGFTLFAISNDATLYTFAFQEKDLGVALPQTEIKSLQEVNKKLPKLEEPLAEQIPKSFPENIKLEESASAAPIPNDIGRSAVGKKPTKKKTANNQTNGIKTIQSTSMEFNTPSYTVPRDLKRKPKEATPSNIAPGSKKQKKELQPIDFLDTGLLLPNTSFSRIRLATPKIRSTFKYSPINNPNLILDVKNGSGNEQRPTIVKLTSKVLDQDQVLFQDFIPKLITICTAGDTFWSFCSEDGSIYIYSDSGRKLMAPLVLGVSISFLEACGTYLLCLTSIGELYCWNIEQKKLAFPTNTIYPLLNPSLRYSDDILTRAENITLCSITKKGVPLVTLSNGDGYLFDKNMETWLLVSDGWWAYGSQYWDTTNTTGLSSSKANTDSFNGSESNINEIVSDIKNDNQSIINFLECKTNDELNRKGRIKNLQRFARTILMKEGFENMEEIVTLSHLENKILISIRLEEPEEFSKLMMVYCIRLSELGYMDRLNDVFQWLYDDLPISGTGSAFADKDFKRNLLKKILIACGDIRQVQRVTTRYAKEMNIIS

For assay [5], the target named is T2, HA-tagged Ura8 (budding yeast) (UniProt P38627).
T2 sequence: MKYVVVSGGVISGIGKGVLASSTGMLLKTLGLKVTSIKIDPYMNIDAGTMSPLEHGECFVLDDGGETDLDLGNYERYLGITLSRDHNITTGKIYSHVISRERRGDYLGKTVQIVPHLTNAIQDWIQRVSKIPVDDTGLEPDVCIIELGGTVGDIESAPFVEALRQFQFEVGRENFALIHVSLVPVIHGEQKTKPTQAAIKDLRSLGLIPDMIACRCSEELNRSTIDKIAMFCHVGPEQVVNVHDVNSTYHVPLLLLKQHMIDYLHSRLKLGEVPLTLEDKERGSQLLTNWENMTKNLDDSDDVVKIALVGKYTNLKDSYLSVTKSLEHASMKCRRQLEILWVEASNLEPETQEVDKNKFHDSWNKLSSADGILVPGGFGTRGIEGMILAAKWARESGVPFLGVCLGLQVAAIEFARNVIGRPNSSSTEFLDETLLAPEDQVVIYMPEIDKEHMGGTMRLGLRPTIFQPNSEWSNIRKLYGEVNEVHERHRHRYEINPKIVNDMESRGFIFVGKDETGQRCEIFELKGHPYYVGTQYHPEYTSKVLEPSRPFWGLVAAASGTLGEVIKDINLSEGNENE
Briefly: co-IP.

Assay [6] concerns the target Hir2 (budding yeast) (UniProt P32480). The assay is described as follows: co-IP.
Assay [7] concerns the target T3, Mtw1 (bait of the co-IP in yeast) (budding yeast) (UniProt P39731).
T3 sequence: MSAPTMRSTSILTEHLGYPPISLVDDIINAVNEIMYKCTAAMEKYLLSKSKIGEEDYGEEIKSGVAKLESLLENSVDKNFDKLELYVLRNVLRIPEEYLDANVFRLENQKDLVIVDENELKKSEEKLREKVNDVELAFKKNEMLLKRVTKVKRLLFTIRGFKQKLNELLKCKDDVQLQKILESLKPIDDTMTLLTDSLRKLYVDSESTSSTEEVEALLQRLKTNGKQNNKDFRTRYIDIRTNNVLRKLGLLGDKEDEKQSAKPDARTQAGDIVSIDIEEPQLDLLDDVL
The assay is described as follows: co-IP.

Results are given in words; binding and its absence hold for the method and conditions named. In cells and extracts the contact can be indirect. Some entries that bind do so weakly or less than the wild type. For part of these data: Where a sequence is shown, tags or fusion partners need not be part of it.

B1: Ste11 cross-linked to HIS-Ssa1 (dimethylated at R305) (enzyme, UniProt P23561 1-717)
chain: MEQTQTAEGTDLLIGDEKTNDLPFVQLFLEEIGCTQYLDSFIQCNLVTEEEIKYLDKDILIALGVNKIGDRLKILRKSKSFQRDKRIEQVNRLKNLMEKVSSLSTATLSMNSELIPEKHCVIFILNDGSAKKVNVNGCFNADSIKKRLIRRLPHELLATNSNGEVTKMVQDYDVFVLDYTKNVLHLLYDVELVTICHANDRVEKNRLIFVSKDQTPSDKAISTSKKLYLRTLSALSQVGPSSSNLLAQNKGISHNNAEGKLRIDNTEKDRIRQIFNQRPPSEFISTNLAGYFPHTDMKRLQKTMRESFRHSARLSIAQRRPLSAESNNIGDILLKHSNAVDMALLQGLDQTRLSSKLDTTKIPKLAHKRPEDNDAISNQLELLSVESGEEEDHDFFGEDSDIVSLPTKIATPKNWLKGACIGSGSFGSVYLGMNAHTGELMAVKQVEIKNNNIGVPTDNNKQANSDENNEQEEQQEKIEDVGAVSHPKTNQNIHRKMVDALQHEMNLLKELHHENIVTYYGASQEGGNLNIFLEYVPGGSVSSMLNNYGPFEESLITNFTRQILIGVAYLHKKNIIHRDIKGANILIDIKGCVKITDFGISKKLSPLNKKQNKRASLQGSVFWMSPEVVKQTATTAKADIWSTGCVVIEMFTGKHPFPDFSQMQAIFKIGTNTTPEIPSWATSEGKNFLRKAFELDYQYRPSALELLQHPWLDAHII
modifications: dimethylation on R305 (on the cross-linked peptide)
For B1, in assay [1], the binding entry was “binds”.

B2: Ura8 found by mass spectrometry with HIS-Ssa1 (protein, UniProt P38627 1-578)
chain: MKYVVVSGGVISGIGKGVLASSTGMLLKTLGLKVTSIKIDPYMNIDAGTMSPLEHGECFVLDDGGETDLDLGNYERYLGITLSRDHNITTGKIYSHVISRERRGDYLGKTVQIVPHLTNAIQDWIQRVSKIPVDDTGLEPDVCIIELGGTVGDIESAPFVEALRQFQFEVGRENFALIHVSLVPVIHGEQKTKPTQAAIKDLRSLGLIPDMIACRCSEELNRSTIDKIAMFCHVGPEQVVNVHDVNSTYHVPLLLLKQHMIDYLHSRLKLGEVPLTLEDKERGSQLLTNWENMTKNLDDSDDVVKIALVGKYTNLKDSYLSVTKSLEHASMKCRRQLEILWVEASNLEPETQEVDKNKFHDSWNKLSSADGILVPGGFGTRGIEGMILAAKWARESGVPFLGVCLGLQVAAIEFARNVIGRPNSSSTEFLDETLLAPEDQVVIYMPEIDKEHMGGTMRLGLRPTIFQPNSEWSNIRKLYGEVNEVHERHRHRYEINPKIVNDMESRGFIFVGKDETGQRCEIFELKGHPYYVGTQYHPEYTSKVLEPSRPFWGLVAAASGTLGEVIKDINLSEGNENE
For B2, the binding result in assay [1] is on record as “binds”.

B3: Rnr2 (protein, UniProt P09938 1-399)
chain: MPKETPSKAAADALSDLEIKDSKSNLNKELETLREENRVKSDMLKEKLSKDAENHKAYLKSHQVHRHKLKEMEKEEPLLNEDKERTVLFPIKYHEIWQAYKRAEASFWTAEEIDLSKDIHDWNNRMNENERFFISRVLAFFAASDGIVNENLVENFSTEVQIPEAKSFYGFQIMIENIHSETYSLLIDTYIKDPKESEFLFNAIHTIPEIGEKAEWALRWIQDADALFGERLVAFASIEGVFFSGSFASIFWLKKRGMMPGLTFSNELICRDEGLHTDFACLLFAHLKNKPDPAIVEKIVTEAVEIEQRYFLDALPVALLGMNADLMNQYVEFVADRLLVAFGNKKYYKVENPFDFMENISLAGKTNFFEKRVSDYQKAGVMSKSTKQEAGAFTFNEDF
Take B3: the binding result in assay [2] is “binds”.

B4: Pim1 cross-linked to HIS-Ssa1 (phosphorylated at S974) (enzyme, UniProt P36775 99-1133)
chain: KDDSTSQKKDEDVKIVPDEKDTDNDVEPTRDDEIVNKDQEGEASKNSRSSASGGGQSSSSRSDSGDGSSKQKPPKDVPEVYPQMLALPIARRPLFPGFYKAVVISDERVMKAIKEMLDRQQPYIGAFMLKNSEEDTDVITDKNDVYDVGVLAQITSAFPSKDEKTGTETMTALLYPHRRIKIDELFPPNEEKEKSKEQAKDTDTETTVVEDANNPEDQESTSPATPKLEDIVVERIPDSELQHHKRVEATEEESEELDDIQEGEDINPTEFLKNYNVSLVNVLNLEDEPFDRKSPVINALTSEILKVFKEISQLNTMFREQIATFSASIQSATTNIFEEPARLADFAAAVSAGEEDELQDILSSLNIEHRLEKSLLVLKKELMNAELQNKISKDVETKIQKRQREYYLMEQLKGIKRELGIDDGRDKLIDTYKERIKSLKLPDSVQKIFDDEITKLSTLETSMSEFGVIRNYLDWLTSIPWGKHSKEQYSIPRAKKILDEDHYGMVDVKDRILEFIAVGKLLGKVDGKIICFVGPPGVGKTSIGKSIARALNRKFFRFSVGGMTDVAEIKGHRRTYIGALPGRVVQALKKCQTQNPLILIDEIDKIGHGGIHGDPSAALLEVLDPEQNNSFLDNYLDIPIDLSKVLFVCTANSLETIPRPLLDRMEVIELTGYVAEDKVKIAEQYLVPSAKKSAGLENSHVDMTEDAITALMKYYCRESGVRNLKKHIEKIYRKAALQVVKKLSIEDSPTSSADSKPKESVSSEEKAENNAKSSSEKTKDNNSEKTSDDIEALKTSEKINVSISQKNLKDYVGPPVYTTDRLYETTPPGVVMGLAWTNMGGCSLYVESVLEQPLHNCKHPTFERTGQLGDVMKESSRLAYSFAKMYLAQKFPENRFFEKASIHLHCPEGATPKDGPSAGVTMATSFLSLALNKSIDPTVAMTGELTLTGKVLRIGGLREKAVAAKRSGAKTIIFPKDNLNDWEELPDNVKEGLEPLAADWYNDIFQKLFKDVNTKEGNSVWKAEFEILDAKKEKD
modifications: phosphoserine at 974 (on the cross-linked peptide)
With B4, the binding entry in assay [1] was “binds”.

B5: Mtw1 cross-linked to HIS-Ssa1 (phosphorylated at Y86) (protein, UniProt P39731 1-289)
chain: MSAPTMRSTSILTEHLGYPPISLVDDIINAVNEIMYKCTAAMEKYLLSKSKIGEEDYGEEIKSGVAKLESLLENSVDKNFDKLELYVLRNVLRIPEEYLDANVFRLENQKDLVIVDENELKKSEEKLREKVNDVELAFKKNEMLLKRVTKVKRLLFTIRGFKQKLNELLKCKDDVQLQKILESLKPIDDTMTLLTDSLRKLYVDSESTSSTEEVEALLQRLKTNGKQNNKDFRTRYIDIRTNNVLRKLGLLGDKEDEKQSAKPDARTQAGDIVSIDIEEPQLDLLDDVL
modifications: phosphotyrosine at 86 (at the identified site of interaction)
On to B5, for which, in assay [1], the binding result is “binds”.

B6: Sse1 (protein, UniProt P32589 1-693)
chain: MSTPFGLDLGNNNSVLAVARNRGIDIVVNEVSNRSTPSVVGFGPKNRYLGETGKNKQTSNIKNTVANLKRIIGLDYHHPDFEQESKHFTSKLVELDDKKTGAEVRFAGEKHVFSATQLAAMFIDKVKDTVKQDTKANITDVCIAVPPWYTEEQRYNIADAARIAGLNPVRIVNDVTAAGVSYGIFKTDLPEGEEKPRIVAFVDIGHSSYTCSIMAFKKGQLKVLGTACDKHFGGRDFDLAITEHFADEFKTKYKIDIRENPKAYNRILTAAEKLKKVLSANTNAPFSVESVMNDVDVSSQLSREELEELVKPLLERVTEPVTKALAQAKLSAEEVDFVEIIGGTTRIPTLKQSISEAFGKPLSTTLNQDEAIAKGAAFICAIHSPTLRVRPFKFEDIHPYSVSYSWDKQVEDEDHMEVFPAGSSFPSTKLITLNRTGDFSMAASYTDITQLPPNTPEQIANWEITGVQLPEGQDSVPVKLKLRCDPSGLHTIEEAYTIEDIEVEEPIPLPEDAPEDAEQEFKKVTKTVKKDDLTIVAHTFGLDAKKLNELIEKENEMLAQDKLVAETEDRKNTLEEYIYTLRGKLEEEYAPFASDAEKTKLQGMLNKAEEWLYDEGFDSIKAKYIAKYEELASLGNIIRGRYLAKEEEKKQAIRSKQEASQMAAMAEKLAAQRKAEAEKKEEKKDTEGDVDMD
Take B6: the binding entry in assay [3], in assay [4], in assay [5], in assay [6], in assay [7] and in assay [1] was “binds” in each case.

B7: Pcl7 found by mass spectrometry with HIS-Ssa1 (protein, UniProt P40186 1-285)
chain: MELSSPSKKTTTSPINIPGGNRDNLIIGPHSHSFKTDPFSSNNSSLLSKISTNPSLESPFSSKSLLDCSPVQAVKKSLESEAKTHSLDEETNEQTDVKILNIADFPTDELILMISALLNRIITANDETTDVSQQVSDETEDELLTPILAFYGKNVPEIAVVQYLERIQKYCPTTNDIFLSLLVYFDRISKNYGHSSERNGCAKQLFVMDSGNIHRLLITGVTICTKFLSDFFYSNSRYAKVGGISLQELNHLELQFLILCDFKLLVSVEEMQKYANLLYKFWNDQ
Take B7: the binding entry in assay [1] is given as “binds”.

Source of the values: publication doi:10.1101/2021.08.25.457671.
